# Data published in the supplement of paper PMC7666118.
# Sequences of proteins named here, by UniProt entry; tags and fusion partners are left off. A change or cut given only in a name is not applied to a line headed by its entry.
# UniProt Q13227: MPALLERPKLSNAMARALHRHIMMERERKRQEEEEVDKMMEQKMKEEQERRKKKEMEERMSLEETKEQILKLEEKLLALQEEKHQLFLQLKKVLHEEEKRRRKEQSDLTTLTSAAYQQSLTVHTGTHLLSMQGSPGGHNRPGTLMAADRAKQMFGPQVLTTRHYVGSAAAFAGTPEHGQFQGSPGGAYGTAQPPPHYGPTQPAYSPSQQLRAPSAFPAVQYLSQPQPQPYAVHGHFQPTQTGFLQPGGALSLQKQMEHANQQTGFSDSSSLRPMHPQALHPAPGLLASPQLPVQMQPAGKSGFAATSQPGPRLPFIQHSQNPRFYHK
# UniProt P63092, whole entry: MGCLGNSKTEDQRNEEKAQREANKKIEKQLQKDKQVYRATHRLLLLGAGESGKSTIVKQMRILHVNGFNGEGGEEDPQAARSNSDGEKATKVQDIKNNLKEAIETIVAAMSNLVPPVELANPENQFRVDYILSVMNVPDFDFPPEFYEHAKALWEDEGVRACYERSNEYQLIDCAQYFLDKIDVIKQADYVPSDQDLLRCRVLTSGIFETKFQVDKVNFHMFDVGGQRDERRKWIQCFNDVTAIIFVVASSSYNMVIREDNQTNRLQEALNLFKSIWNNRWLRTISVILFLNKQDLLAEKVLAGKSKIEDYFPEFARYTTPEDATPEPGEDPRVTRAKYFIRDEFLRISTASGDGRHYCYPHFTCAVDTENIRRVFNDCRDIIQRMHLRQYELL
# UniProt P07686: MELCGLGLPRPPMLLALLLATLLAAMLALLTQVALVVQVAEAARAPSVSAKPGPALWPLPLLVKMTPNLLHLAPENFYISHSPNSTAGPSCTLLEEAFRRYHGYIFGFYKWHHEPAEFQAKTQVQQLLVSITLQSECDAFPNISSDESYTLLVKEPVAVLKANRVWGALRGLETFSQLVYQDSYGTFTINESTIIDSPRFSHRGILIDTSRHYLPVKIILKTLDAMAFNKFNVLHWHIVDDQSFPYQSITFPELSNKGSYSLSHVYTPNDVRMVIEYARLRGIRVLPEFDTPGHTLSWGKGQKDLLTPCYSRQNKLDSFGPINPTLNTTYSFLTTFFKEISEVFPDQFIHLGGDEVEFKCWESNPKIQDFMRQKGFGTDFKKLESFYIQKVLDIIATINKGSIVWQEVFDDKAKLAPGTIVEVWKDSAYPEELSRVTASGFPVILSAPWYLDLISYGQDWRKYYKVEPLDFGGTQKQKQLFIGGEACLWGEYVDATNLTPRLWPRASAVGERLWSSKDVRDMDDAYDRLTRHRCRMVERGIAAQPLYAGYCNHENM
# UniProt Q96CS2: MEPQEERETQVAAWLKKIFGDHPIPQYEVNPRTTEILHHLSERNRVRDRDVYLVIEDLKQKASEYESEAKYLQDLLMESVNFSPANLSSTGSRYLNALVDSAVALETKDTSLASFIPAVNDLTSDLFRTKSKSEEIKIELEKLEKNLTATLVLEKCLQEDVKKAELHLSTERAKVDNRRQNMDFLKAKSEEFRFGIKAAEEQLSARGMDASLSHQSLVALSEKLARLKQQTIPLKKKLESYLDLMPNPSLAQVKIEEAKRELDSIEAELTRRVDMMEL
# UniProt P34059: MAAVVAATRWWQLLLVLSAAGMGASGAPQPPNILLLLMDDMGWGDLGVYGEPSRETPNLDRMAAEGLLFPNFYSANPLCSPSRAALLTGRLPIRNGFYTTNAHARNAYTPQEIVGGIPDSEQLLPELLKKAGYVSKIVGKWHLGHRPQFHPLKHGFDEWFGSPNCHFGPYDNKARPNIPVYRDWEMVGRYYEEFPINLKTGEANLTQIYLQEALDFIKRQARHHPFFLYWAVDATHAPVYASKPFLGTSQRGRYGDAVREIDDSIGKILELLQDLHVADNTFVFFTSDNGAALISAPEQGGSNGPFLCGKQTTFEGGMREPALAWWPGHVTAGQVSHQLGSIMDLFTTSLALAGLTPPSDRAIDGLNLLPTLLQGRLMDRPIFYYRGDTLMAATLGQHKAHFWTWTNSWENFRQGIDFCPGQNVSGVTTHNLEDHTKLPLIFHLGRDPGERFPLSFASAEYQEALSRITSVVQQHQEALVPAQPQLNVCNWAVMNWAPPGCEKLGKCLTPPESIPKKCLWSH
# UniProt Q06210: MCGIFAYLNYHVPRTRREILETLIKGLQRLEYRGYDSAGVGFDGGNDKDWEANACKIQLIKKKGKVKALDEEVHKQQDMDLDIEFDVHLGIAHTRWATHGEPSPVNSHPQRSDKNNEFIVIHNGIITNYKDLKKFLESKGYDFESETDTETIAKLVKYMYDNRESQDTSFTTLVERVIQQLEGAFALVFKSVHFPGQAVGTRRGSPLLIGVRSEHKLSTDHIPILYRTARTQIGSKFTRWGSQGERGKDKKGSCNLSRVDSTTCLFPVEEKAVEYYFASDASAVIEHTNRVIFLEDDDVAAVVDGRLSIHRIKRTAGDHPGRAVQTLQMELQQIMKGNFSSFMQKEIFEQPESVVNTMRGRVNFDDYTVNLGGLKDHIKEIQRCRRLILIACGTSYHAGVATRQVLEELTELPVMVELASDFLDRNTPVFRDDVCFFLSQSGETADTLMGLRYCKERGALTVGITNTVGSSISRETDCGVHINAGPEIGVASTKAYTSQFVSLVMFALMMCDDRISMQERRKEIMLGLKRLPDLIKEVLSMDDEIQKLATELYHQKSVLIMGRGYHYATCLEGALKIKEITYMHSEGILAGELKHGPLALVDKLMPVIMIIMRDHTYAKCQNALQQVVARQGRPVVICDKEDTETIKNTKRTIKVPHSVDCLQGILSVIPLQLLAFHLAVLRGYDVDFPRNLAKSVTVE
# UniProt Q14691: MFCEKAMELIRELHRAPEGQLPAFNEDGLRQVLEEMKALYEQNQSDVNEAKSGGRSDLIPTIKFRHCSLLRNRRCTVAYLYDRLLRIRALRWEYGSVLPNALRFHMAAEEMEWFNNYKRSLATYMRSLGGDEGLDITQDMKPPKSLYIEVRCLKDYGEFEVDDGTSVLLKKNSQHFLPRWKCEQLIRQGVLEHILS
# UniProt Q9UHW5, whole entry: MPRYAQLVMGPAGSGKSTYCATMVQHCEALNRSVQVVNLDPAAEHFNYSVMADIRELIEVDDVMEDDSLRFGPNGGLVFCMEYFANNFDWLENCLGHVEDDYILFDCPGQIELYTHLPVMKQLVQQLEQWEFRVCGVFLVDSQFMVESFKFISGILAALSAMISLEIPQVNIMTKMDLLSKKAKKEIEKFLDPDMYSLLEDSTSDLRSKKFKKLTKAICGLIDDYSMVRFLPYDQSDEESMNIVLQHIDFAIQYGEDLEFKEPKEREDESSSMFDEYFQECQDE
# UniProt Q9Y223: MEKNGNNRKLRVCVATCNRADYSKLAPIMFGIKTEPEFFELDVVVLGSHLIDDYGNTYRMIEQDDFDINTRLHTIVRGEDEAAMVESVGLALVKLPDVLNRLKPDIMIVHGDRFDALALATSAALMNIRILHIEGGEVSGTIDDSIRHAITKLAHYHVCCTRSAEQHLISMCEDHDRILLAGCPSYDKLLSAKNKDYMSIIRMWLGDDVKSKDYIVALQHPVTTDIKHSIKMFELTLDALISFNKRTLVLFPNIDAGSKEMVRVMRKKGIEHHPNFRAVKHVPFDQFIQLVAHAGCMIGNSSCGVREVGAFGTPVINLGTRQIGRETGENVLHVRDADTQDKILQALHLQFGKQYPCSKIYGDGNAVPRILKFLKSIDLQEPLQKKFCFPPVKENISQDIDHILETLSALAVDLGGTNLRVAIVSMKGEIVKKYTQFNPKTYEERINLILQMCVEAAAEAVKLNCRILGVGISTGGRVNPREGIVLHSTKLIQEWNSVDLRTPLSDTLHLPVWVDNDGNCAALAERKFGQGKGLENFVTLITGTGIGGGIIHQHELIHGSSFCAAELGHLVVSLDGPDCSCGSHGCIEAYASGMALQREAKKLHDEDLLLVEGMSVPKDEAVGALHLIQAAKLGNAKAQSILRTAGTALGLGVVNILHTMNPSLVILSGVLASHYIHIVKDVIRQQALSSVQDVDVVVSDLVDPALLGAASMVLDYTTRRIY
# UniProt Q8IWJ2: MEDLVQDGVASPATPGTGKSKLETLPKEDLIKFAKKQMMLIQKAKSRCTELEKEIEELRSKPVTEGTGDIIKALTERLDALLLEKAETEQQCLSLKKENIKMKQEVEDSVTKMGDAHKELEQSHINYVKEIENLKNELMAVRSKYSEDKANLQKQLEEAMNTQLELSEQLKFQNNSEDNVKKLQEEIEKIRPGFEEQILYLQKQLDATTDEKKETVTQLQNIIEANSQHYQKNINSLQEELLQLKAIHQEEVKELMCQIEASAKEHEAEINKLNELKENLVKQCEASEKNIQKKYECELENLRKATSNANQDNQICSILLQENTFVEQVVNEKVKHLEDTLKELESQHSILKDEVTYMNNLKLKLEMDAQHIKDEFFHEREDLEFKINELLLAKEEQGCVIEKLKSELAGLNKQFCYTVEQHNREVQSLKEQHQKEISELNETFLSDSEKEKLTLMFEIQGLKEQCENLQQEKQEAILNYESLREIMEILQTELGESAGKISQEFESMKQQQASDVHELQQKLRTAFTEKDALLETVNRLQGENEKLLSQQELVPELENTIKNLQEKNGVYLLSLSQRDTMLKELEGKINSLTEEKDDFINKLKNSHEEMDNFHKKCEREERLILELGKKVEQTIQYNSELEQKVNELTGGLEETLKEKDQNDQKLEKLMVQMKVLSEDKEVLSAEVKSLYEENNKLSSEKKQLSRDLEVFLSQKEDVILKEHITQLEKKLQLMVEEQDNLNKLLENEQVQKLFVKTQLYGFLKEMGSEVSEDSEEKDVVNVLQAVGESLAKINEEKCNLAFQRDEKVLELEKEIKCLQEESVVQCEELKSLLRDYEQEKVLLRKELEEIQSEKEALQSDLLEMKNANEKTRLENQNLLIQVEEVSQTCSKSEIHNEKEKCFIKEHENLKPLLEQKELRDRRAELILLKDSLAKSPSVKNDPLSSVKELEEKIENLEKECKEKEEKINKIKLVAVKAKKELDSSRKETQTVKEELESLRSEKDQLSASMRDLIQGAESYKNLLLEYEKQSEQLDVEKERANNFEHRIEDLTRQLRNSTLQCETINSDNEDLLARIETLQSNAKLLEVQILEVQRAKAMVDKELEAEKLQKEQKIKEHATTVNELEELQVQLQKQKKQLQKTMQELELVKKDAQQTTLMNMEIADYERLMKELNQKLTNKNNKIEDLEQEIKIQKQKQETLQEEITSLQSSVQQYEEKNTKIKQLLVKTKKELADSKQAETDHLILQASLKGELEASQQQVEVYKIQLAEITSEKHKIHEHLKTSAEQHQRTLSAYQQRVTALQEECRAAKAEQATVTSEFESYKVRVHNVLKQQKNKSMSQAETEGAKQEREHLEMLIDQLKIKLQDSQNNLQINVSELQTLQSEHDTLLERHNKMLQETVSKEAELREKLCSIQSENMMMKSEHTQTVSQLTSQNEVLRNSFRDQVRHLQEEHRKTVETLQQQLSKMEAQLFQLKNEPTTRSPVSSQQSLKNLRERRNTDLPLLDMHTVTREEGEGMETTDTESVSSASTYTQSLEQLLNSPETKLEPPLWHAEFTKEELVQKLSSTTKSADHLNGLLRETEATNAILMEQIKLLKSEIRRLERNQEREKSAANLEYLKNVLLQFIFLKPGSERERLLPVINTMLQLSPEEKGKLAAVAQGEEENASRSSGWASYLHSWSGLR
# UniProt P52789: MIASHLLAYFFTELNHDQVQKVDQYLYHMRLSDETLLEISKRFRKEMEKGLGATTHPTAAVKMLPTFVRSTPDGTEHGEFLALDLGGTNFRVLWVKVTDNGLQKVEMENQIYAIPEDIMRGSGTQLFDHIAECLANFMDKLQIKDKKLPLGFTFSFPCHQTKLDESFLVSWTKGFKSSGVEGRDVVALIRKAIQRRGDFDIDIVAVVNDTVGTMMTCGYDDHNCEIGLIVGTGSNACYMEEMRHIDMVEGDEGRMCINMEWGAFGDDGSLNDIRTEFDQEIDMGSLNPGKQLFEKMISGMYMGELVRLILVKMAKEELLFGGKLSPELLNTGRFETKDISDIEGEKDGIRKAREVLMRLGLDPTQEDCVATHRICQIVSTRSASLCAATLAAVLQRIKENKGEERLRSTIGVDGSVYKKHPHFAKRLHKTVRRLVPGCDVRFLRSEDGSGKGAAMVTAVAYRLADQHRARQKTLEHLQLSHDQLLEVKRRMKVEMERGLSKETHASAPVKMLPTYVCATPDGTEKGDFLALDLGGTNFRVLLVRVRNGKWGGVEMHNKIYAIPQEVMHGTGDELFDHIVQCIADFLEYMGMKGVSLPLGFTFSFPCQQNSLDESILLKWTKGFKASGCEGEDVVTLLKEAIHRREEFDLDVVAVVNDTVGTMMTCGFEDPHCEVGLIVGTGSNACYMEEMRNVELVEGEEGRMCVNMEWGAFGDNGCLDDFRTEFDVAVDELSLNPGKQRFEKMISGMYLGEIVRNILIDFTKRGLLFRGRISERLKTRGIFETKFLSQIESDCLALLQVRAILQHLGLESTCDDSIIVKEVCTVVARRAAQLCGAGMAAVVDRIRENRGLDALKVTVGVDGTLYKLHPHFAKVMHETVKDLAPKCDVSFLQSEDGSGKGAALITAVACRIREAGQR
# The list shows a part of the results.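 Rule for the calls: active = dose-dependent thermal stabilisation significant by F-test of dose-response against flat model at 10% FDR; inactive = not significant.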
# Compound: Nc1nc2c(ncn2[C@@H]2O[C@H](COP(=O)(O)OP(=O)(O)OP(=O)(O)O)[C@@H](O)[C@H]2O)c(=O)[nH]1
# Experiment: dose-dependent thermal stabilisation call (2D-TPP, DLPTP, 10% FDR) (binary (1 = stabilised)); higher = stabilised by the compound
# Conditions: system: Jurkat gel-filtered lysate; concentration range 1-500 µM
# Procedure: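 2D thermal proteome profiling in gel-filtered Jurkat E6.1 lysate (2 mg/ml) treated with NaGTP (0, 1, 10, 100, 500 uM) for 10 min at room temperature, then heated 3 min at one of 12 temperatures (42-63.9 C). Soluble protein was quantified by TMT10 MS. The value is the DLPTP call of the paper: dose-dependent thermal stabilisation over all temperatures at 10% FDR (F-test of a dose-response against a flat model); one experiment, one call per tested protein.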
row,Target,dose-dependent thermal stabilisation call
1,GPS2 (UniProt Q13227),inactive: 0
2,GNAS (UniProt P63092),active: 1
3,HERC4 (UniProt Q5GLZ8),inactive: 0
4,GOLGA1 (UniProt Q92805),inactive: 0
5,GPATCH4 (UniProt Q5T3I0),inactive: 0
6,GMIP (UniProt Q9P107),active: 1
7,GNPDA2 (UniProt Q8TDQ7),inactive: 0
8,GMPR2 (UniProt Q9P2T1),inactive: 0
9,GEMIN5 (UniProt Q8TEQ6),inactive: 0
10,GAA (UniProt P10253),inactive: 0
11,"HIST1H4A, HIST1H4B, HIST1H4C, HIST1H4D, HIST1H4E, HIST1H4F, HIST1H4H, HIST1H4I, HIST1H4J, HIST1H4K, HIST1H4L, HIST2H4A, HIST2H4B, HIST4H4 (UniProt P62805)",inactive: 0
12,GINS2 (UniProt Q9Y248),inactive: 0
13,GPI (UniProt P06744),inactive: 0
14,GOLGA4 (UniProt Q13439),inactive: 0
15,HEXB (UniProt P07686),inactive: 0
16,HMG20B (UniProt Q9P0W2),inactive: 0
17,HAUS1 (UniProt Q96CS2),inactive: 0
18,HARS (UniProt P12081),inactive: 0
19,HK1 (UniProt P19367),active: 1
20,HDDC3 (UniProt Q8N4P3),inactive: 0

# Taken from above:
# Value of GOLGA1 (UniProt Q92805) under dose-dependent thermal stabilisation call: inactive: 0
# Value of HAUS1 (UniProt Q96CS2) under dose-dependent thermal stabilisation call: inactive: 0

# The list goes on.

row,Target,dose-dependent thermal stabilisation call
1,HMGN2 (UniProt P05204),inactive: 0
2,GALNS (UniProt P34059),inactive: 0
3,HDAC3 (UniProt O15379),inactive: 0
4,GFPT1 (UniProt Q06210),inactive: 0
5,GINS1 (UniProt Q14691),active: 1
6,GRB2 (UniProt P62993),inactive: 0
7,GPS1 (UniProt Q13098),inactive: 0
8,GPN3 (UniProt Q9UHW5),active: 1
9,GZF1 (UniProt Q9H116),inactive: 0
10,GAMT (UniProt Q14353),inactive: 0
11,GANAB (UniProt Q14697),inactive: 0
12,GNE (UniProt Q9Y223),active: 1
13,GGA2 (UniProt Q9UJY4),inactive: 0
14,GIT2 (UniProt Q14161),active: 1
15,GCC2 (UniProt Q8IWJ2),inactive: 0
16,GOLGA2 (UniProt Q08379),inactive: 0
17,HK2 (UniProt P52789),active: 1
18,GET4 (UniProt Q7L5D6),inactive: 0
19,GLUL (UniProt P15104),inactive: 0
20,GRN (UniProt P28799),inactive: 0
